Drawing on PubChem BioAssay AID1347423 (Functional Genomics Laboratory (NCATS/FGL), 2020), this text covers z-score for 66 sequences.

The whole screen tested about 52,000 sequences, of which about 210 (0.4%) were called active.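 The calls were made as follows: active = gene whose silencing raises cell survival under the drug, median off-target-corrected z-score across its silencing RNAs 2 or more; inactive = the rest.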 The list shows a part of the results.

This test in a line: Resistance to Poly (ADP-Ribose) Polymerase inhibitor: Gene Identification via Genome-wide siRNA Screen. To be noted: mouse BRCA2 R2336H ES cells, olaparib, CellTiter-Glo viability; stronger effect = higher value. Put shortly: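 Genome-wide siRNA screen (3 siRNAs/gene, 20 nM) in mouse ES cells carrying hypomorphic BRCA2 R2336H; olaparib 500 nM added 48 h post-transfection, CellTiter-Glo viability 72 h later. Normalized to plate-median negative control; MAD z-scores, gene median, seed-adjusted.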
Consider GGCUUUGCUCGGUUUGGUATT against BC066107, for which the z-score is inactive: -0.225.
Consider GCAGUUUGUUCAAAGUAGCTT against Gm78, for which the z-score was inactive: 0.82.
Regarding GGAUUCACAUUUCUAAAGCTT against Adcy8, the z-score was inactive: 1.11.
Take “GGGAACUGCACAAUACAAATT against 4933415L06Rik”: the z-score was inactive: -0.793.
In the case of GCCCAAGUGUGAUAAAUGCTT against Ntn4, the z-score was inactive: 1.6.
Then CCAAGAAUGACGAUUGCUCTT against Dmn, with inactive: 0.971.
Then GGAGGCAUACAUGACAAAATT against C80879, with inactive: -0.441; and GCCUGUCAUGGUUAUGACCTT against Shbg, with inactive: 0.554; and GGAGAUGAAGCAAUGGCCCTT against Bmp15, with inactive: 0.0144.
GCAAAACCAUUUGAAAAUGTT against Negr1: the z-score is inactive: -0.48.
Turning to GCAAUAUGUGACAAACUUCTT against Ptpn8, the z-score was inactive: 1.3.
As for GGACACCAACAUAUUGUUCTT against Slc13a2, the z-score was inactive: 0.104.
To GGCUAUGCAGAUAAAUAUGTT against Lctl belongs inactive: -0.374; to GCGGUGUGAAGAUUGUACATT against Hsd17b3, inactive: -0.193.
In the case of CGUACUAUACUAACACAGATT against Arl5, the z-score is inactive: 0.907.
Then GGUGAUCUUUUAUAUUGUGTT against Dmc1h, with inactive: -0.546; and GCUAUAAGGCUUAAUAGGGTT against BC038059, with inactive: 0.943.
Take GGCAGUCGGGAUUGUAAAATT against Gpr3: the z-score is inactive: -0.572.
As for “GGGCUGAAUAAGGAACUGUTT against 1700080E11Rik”, the z-score is inactive: -0.374.
As for CCGCAUAUUUCAAUAAAUCTT against Rpl4, the z-score was inactive: -1.94.
GGUCUUGGAUGCAAACGAUTT against Pcdhga2: the z-score was inactive: -0.965.
To GGUCAAGUUCAAGUGAGGATT against Zadh1 belongs inactive: -1.29; to “GGUCAGUCCCUAGAUUAUATT against A430096B05Rik”, inactive: -0.467.
To GGUUUAGCUGCUGACUUAATT against Strn3 belongs inactive: -1.03; to CCAGAGAUUGGACACAUCUTT against Vps33b, inactive: 0.863.
“GCUCUGCUGUAGACGUGAATT against C130060K24Rik”: the z-score is inactive: 0.354.
As for GGCAUCUUCCUUUAAAAAGTT against Nola1, the z-score is inactive: -1.29.
In the case of CCACCUCAGCUCUUGUGAUTT against H2-Ab1, the z-score is inactive: -0.646.
GGGUUAUUCUACGAAUGCUTT against Thumpd1: the z-score is inactive: -0.297.
To GGGUGCAUGUGUCAGAUUUTT against Olfr1277 belongs inactive: -0.167; to “GCAUGUAGCCCUAAUUUUGTT against 5730551F12Rik”, inactive: 0.214; to GCAGUAACCUUCUAACAAATT against Foxn2, inactive: 0.314.
Regarding “GCAGUACCACUCUCUUUUUTT against 2610304F09Rik”, the z-score is inactive: 0.155.
Regarding “GGAUCAGGAUUUAAUGAAUTT against 3110050N22Rik”, the z-score is inactive: 0.285.
For GGCUUAAAUGCGUUCUACATT against Slc25a3, the z-score is inactive: -1.28.
Regarding GGGAUCCUCUUGACAUUCCTT against AU040950, the z-score was inactive: -0.938.
Then GAAGGCCAAUGAUCGGGAGTT against Neurog3, with inactive: -0.539; and GGAUAUUCGAGCAACCUUUTT against Pcdhb18, with inactive: 0.259; and GCCCUACACCUGUAUUACATT against Tas1r3, with inactive: 0.998.
On to GGCAAAGUUGUCCUAAGGUTT against Rab27b, for which the z-score was inactive: 0.928.
GGCUGCUUCAGAUUUUCACTT against Naalad2: the z-score was inactive: -0.162.
As for GCUGAAAGAUUUACUGCCCTT against Bhlhb3, the z-score was inactive: 0.869.
Then GCCAGUUACGCGGACAUUUTT against Rasgrf2, with inactive: -1.12; and GCACAGGUGAGCUCUUUGATT against Nudt10, with inactive: -0.345; and GGAUAAGGUCCAGUACUUGTT against Mapk13, with inactive: 0.0642.
Then “CCAUCAGGUUUAAGUCGUATT against 2210415M20Rik”, with inactive: -0.646; and GCUAAUGGCAGAGUAACCUTT against Pcdhga1, with inactive: 0.692; and CCACAUUGUAGGCAACCAATT against Hpd, with inactive: 0.682.
Regarding GGCGGUGAUGGAAUGAACATT against Plod2, the z-score is inactive: -0.634.
With GCCAAACUUACGUUUUUGATT against Als2cr3, the z-score was inactive: 0.163.
In the case of “GGUAUAUAACAACCUGUAUTT against 1700031F13Rik”, the z-score was inactive: 1.2.
On to GCACCAAUAUUAGGCUGACTT against Ccrn4l, for which the z-score is inactive: 1.43.
Then GGUGCCAAUGACAUAUUGGTT against H2-M10.5, with inactive: 0.255; and GAUGUUCUUUGUCCACAUGTT against Olfr666, with inactive: -0.163; and GGAUACAGCCUGCCAGUUCTT against BC035954, with inactive: -0.187.
For the sequence GGCCUUGCUUCGAUGUAGUTT against Gemin7, the z-score is inactive: -0.183.
As for GAAGGAGAAGGAAGAGUUGTT against Cadps, the z-score was inactive: 0.443.
Take GCCACAACUGGCACGUUACTT against Mbd3: the z-score was inactive: 0.995.
As to “GGAUAUUCUUCUUAAGCAGTT against 9430057O19Rik”, the z-score is inactive: -0.988.
Turning to GGGUCGAAAUUGGGAUCCATT against Vps45, the z-score was inactive: -0.588.
Consider “GGACUCUAAGUUGUGAAUUTT against B430203M17Rik”, for which the z-score was inactive: -1.
For “GCACCAUGUCAGGAAGUGUTT against B230315M08Rik”, the z-score is active: 3.45.
For GGAUAAAGAAGGACUCAAATT against Tpbpb, the z-score was inactive: -0.0307.
In the case of GGUGGAAGGCUUUUUCUACTT against Olfr1104, the z-score is inactive: 0.659.
For the sequence “GCAAUGUACUGGUAUAAUUTT against B230315F11Rik”, the z-score was inactive: -0.587.
Take CCCAUGUUUAUGUUGCUGATT against Olfr467: the z-score was inactive: 0.197.
